Assay results from the supplement of paper PMC11006884.
Only a part is listed here, and it is no random draw.

Amino acid sequences for entries named in this document (tags omitted). A change or cut given only in a name is not applied to a line headed by its entry.
UniProt Q92616, whole entry, looked up: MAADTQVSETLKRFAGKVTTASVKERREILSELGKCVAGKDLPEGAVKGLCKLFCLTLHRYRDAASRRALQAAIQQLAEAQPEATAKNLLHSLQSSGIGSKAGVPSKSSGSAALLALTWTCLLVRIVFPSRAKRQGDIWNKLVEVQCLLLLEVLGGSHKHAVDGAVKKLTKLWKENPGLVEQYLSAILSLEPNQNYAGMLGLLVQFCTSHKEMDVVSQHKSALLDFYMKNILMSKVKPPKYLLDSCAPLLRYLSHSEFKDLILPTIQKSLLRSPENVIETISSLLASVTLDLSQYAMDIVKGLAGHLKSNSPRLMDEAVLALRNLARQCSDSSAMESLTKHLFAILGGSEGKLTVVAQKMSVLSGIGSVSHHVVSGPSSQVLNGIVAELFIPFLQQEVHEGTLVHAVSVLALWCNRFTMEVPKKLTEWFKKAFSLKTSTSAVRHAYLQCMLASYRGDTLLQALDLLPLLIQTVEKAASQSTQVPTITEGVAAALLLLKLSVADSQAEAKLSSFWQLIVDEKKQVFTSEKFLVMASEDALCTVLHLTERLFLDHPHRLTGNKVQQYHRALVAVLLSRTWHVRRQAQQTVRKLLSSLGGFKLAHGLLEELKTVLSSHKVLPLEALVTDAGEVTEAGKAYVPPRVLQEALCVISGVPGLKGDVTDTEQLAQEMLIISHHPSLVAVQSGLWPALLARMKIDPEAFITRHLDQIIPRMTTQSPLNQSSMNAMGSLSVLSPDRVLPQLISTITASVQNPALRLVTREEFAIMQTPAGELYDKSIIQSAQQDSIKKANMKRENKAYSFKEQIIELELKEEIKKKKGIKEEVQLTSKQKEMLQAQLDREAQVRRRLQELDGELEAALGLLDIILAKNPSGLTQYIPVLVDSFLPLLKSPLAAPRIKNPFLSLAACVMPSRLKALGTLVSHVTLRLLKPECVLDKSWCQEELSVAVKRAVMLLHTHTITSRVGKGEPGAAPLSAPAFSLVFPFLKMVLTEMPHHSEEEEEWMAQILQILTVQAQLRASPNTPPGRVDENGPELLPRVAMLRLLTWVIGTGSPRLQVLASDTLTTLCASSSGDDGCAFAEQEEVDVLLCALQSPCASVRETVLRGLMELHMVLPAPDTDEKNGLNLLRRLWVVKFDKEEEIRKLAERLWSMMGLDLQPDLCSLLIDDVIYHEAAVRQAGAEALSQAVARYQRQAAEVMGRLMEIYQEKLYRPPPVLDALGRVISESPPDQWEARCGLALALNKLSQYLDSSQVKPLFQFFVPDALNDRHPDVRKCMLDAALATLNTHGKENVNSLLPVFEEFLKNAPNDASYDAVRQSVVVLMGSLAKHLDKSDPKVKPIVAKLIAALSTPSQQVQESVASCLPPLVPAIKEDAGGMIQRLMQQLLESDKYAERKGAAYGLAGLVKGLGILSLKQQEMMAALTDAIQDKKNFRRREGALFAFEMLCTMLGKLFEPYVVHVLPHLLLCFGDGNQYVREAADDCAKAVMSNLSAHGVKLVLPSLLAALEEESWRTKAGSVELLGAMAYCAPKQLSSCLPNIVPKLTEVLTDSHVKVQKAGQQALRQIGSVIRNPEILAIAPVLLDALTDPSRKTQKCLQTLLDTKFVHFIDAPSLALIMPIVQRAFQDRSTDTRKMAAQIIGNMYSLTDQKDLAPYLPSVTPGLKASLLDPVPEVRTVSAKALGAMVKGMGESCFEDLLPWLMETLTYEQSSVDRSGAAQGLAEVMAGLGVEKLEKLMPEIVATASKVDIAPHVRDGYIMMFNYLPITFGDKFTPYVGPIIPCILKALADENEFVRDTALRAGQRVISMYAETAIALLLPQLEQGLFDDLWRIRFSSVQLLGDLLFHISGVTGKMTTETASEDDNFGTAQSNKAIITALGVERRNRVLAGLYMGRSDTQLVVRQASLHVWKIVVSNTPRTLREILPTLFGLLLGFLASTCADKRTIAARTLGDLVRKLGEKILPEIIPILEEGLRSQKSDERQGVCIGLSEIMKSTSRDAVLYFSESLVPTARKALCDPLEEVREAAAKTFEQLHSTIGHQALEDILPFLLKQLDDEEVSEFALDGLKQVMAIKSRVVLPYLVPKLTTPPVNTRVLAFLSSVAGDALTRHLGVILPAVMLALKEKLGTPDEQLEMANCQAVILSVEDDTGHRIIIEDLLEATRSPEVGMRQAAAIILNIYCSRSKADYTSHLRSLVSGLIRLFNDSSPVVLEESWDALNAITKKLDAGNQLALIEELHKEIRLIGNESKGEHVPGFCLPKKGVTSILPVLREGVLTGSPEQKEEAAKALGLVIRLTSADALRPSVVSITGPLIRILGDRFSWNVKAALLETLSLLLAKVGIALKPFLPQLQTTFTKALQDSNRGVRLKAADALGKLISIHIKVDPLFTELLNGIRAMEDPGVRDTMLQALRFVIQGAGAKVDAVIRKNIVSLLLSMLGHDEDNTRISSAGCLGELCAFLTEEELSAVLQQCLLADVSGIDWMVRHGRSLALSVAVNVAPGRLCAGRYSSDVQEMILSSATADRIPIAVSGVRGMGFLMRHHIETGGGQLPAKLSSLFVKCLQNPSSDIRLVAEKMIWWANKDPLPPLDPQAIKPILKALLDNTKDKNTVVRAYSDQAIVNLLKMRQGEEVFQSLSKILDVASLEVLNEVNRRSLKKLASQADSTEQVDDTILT
UniProt Q96B54: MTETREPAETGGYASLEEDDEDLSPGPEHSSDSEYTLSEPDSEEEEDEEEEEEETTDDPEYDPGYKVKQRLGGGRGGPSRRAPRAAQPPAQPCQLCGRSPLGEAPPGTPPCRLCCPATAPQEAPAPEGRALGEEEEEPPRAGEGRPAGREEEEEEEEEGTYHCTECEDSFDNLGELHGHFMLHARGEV
UniProt Q96EV8: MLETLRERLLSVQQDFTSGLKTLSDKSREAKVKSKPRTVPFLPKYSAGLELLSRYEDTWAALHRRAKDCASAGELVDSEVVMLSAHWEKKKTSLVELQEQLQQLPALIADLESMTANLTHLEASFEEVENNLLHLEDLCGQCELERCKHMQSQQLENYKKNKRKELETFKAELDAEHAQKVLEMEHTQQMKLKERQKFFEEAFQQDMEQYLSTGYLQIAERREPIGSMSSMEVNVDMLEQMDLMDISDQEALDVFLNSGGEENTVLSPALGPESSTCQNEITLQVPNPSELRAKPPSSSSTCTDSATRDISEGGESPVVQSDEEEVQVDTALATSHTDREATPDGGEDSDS
UniProt Q96CS3: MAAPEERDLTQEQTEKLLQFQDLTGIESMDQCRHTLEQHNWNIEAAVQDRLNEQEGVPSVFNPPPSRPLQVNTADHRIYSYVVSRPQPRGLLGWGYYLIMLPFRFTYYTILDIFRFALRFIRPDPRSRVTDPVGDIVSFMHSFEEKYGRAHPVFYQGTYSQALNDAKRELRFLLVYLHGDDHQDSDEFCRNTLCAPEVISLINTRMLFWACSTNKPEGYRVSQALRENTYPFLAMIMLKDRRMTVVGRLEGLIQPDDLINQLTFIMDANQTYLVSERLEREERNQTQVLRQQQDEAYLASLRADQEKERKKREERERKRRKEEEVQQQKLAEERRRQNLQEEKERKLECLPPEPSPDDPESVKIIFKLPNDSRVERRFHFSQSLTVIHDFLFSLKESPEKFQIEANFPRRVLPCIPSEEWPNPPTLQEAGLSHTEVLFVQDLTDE
UniProt Q96H79: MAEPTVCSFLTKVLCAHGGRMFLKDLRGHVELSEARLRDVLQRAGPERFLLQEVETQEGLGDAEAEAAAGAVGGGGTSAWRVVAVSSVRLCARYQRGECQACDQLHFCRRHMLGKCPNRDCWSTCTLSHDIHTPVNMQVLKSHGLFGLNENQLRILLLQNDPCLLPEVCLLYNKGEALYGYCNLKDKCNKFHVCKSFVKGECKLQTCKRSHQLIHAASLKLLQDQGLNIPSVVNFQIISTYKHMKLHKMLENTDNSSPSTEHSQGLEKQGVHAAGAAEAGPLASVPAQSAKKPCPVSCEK
UniProt Q96B26, whole entry: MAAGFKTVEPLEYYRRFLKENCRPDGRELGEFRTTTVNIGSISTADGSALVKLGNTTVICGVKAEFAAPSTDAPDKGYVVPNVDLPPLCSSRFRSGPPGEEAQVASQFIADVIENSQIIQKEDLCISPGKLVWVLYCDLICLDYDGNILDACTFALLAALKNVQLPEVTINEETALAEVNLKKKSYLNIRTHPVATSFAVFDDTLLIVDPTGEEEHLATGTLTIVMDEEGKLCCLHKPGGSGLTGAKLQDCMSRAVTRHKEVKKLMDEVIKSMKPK
UniProt Q96FW1, whole entry, looked up: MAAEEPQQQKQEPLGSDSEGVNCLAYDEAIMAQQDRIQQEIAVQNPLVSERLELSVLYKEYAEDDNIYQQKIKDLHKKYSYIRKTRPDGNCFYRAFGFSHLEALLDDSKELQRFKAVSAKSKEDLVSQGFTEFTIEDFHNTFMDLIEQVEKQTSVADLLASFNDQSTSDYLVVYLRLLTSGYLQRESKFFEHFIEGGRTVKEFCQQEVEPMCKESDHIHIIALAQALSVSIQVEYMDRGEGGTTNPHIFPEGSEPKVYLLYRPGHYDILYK
UniProt Q92576, whole entry, looked up: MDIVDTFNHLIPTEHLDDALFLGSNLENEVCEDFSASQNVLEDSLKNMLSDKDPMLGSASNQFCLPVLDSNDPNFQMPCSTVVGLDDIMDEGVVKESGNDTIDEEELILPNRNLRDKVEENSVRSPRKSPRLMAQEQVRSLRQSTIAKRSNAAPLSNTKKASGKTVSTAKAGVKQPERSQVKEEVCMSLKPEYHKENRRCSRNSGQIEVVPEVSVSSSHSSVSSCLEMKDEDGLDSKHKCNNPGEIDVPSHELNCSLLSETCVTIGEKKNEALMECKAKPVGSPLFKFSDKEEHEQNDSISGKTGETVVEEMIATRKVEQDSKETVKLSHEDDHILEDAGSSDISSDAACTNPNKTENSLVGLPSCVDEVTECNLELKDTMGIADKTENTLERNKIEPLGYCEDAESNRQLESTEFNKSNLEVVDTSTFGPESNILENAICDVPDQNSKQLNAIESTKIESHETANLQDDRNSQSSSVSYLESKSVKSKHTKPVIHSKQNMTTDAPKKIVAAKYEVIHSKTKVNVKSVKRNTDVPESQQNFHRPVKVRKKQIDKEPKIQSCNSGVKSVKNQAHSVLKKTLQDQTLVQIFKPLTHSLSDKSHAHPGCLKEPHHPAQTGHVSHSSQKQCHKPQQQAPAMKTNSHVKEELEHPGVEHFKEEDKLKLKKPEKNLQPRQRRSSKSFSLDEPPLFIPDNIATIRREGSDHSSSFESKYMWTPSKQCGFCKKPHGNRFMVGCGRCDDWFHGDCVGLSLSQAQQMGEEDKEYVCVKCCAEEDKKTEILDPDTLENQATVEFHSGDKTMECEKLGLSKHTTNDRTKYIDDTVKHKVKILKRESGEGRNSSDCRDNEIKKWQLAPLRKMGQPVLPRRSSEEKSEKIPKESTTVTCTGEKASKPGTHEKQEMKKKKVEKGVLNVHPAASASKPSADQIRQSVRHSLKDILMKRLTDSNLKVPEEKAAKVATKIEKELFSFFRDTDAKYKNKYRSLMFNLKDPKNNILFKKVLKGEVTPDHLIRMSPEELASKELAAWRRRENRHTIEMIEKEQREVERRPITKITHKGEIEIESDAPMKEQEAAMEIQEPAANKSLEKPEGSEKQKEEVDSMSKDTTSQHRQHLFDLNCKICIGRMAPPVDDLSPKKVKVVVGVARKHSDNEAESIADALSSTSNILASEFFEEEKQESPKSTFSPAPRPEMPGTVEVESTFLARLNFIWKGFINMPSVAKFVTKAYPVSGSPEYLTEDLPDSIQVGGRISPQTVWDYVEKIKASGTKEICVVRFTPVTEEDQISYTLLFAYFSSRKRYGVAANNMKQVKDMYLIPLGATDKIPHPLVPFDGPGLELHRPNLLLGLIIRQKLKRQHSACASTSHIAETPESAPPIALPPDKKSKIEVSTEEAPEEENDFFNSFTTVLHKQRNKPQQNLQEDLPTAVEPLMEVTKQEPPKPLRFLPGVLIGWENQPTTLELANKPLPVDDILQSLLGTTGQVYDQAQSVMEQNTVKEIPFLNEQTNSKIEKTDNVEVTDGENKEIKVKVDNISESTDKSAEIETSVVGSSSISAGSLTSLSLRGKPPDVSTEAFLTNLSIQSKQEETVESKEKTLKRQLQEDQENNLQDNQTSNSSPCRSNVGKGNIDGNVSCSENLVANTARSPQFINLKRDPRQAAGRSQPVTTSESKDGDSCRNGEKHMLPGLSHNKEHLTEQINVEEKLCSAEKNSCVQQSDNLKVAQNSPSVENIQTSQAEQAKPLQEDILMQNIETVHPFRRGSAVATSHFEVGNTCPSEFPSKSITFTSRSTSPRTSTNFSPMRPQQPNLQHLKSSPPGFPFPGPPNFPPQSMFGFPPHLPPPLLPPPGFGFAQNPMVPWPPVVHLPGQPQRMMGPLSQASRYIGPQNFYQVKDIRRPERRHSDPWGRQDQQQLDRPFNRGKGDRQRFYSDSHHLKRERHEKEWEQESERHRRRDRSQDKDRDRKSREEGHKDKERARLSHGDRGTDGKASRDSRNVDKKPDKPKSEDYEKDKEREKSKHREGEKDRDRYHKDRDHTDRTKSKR

The targets below were run with COC(=O)C#Cc1ccccc1 [methyl 3-phenylpropiolate] (assay: log2 ratio of iodoacetamide-alkyne labeling of the cysteine site, DMSO over compound (competition); higher = stronger covalent engagement of the cysteine by the compound, active = 1 or more). Details: 500 µM; treatment time 1 h; system: HEK293T cell lysate.
Procedure, shortened: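 The log2 competition ratio per cysteine is defined as mean reporter intensity in control channels over mean reporter intensity in compound channels. Lysate from HEK293T cells (2 mg/mL) received electrophile (500 µM) or vehicle for 1 h at ambient temperature, followed by iodoacetamide alkyne for 1 h. Samples were clicked to sCIP-TMT reagents, pooled, trypsin-digested overnight at 37 °C, streptavidin-enriched, acid-eluted and run on Orbitrap Eclipse LC-MS/MS with FAIMS, with quantification in FragPipe. Three replicates with duplicate channels were used, and any cysteine quantified in only one replicate was excluded.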
For UniProt Q96C57_C161, the “log2 ratio of iodoacetamide-alkyne labeling” value (from here on “log2 ratio”) was inactive: 0.107.
In the case of UniProt Q92616_C1535, the “log2 ratio” value is reported as inactive: 0.307.
For GTPBP3 C489 (UniProt Q969Y2), the “log2 ratio” value was inactive: -0.093.
ANP32B C123 (UniProt Q92688) was tested, and the “log2 ratio” value was inactive: -0.00811.
For NECTIN2 C446 (UniProt Q92692), the “log2 ratio” value was inactive: 0.264.
For ZNF428 C111 (UniProt Q96B54), the “log2 ratio” value was inactive: 0.523.
For LPP C364 (UniProt Q93052), the “log2 ratio” value was inactive: 0.161.
SNF8 C72 (UniProt Q96H20) was tested, and the “log2 ratio” value was inactive: 0.2.
DTNBP1 C302 (UniProt Q96EV8) was tested, and the “log2 ratio” value was inactive: 0.108.
In the case of GBF1 C592 (UniProt Q92538), the “log2 ratio” value is reported as inactive: 0.278.
UniProt Q92616_C2015 was tested, and the “log2 ratio” value was inactive: 0.375.
With FAF2 C194 (UniProt Q96CS3) the “log2 ratio” value was inactive: 0.689.
For FAF2 C414 (UniProt Q96CS3), the “log2 ratio” value was inactive: 0.0814.
In the case of PDLIM5 C213 (UniProt Q96HC4), the “log2 ratio” value is reported as inactive: 0.457.
With NT5C3B C210 (UniProt Q969T7) the “log2 ratio” value was inactive: 0.461.
With UniProt Q96G28_C138 the “log2 ratio” value was inactive: 0.0764.
For UniProt Q96EY4_C162, the “log2 ratio” value was inactive: 0.148.
With SYMPK C859 (UniProt Q92797) the “log2 ratio” value was inactive: 0.383.
ANP32B C114 (UniProt Q92688) was tested, and the “log2 ratio” value was inactive: 0.0691.
In the case of UniProt Q96AX9_C323, the “log2 ratio” value is reported as inactive: 0.768.
With TTC28 C502 (UniProt Q96AY4) the “log2 ratio” value was inactive: 0.222.
In the case of DPF2 C53 (UniProt Q92785), the “log2 ratio” value is reported as inactive: 0.433.
For UniProt Q92879_C150, the “log2 ratio” value was inactive: -0.0192.
For UniProt Q969X6_C21, the “log2 ratio” value was inactive: -0.136.
In the case of UniProt Q96EY5_C90, the “log2 ratio” value is reported as inactive: 0.176.
ZC3HAV1L C121 (UniProt Q96H79) was tested, and the “log2 ratio” value was inactive: 0.308.
In the case of SMARCC1 C164 (UniProt Q92922), the “log2 ratio” value is reported as inactive: 0.146.
EXOSC8 C89 (UniProt Q96B26) was tested, and the “log2 ratio” value was inactive: -0.0354.
For CCDC97 C17 (UniProt Q96F63), the “log2 ratio” value was inactive: 0.33.
With KAT5 C11 (UniProt Q92993) the “log2 ratio” value was inactive: -0.309.
In the case of OTUB1 C23 (UniProt Q96FW1), the “log2 ratio” value is reported as inactive: 0.333.
With PHF3 C1616 (UniProt Q92576) the “log2 ratio” value was active: 1.14.
For UniProt Q92841_C277, the “log2 ratio” value was inactive: 0.761.
UniProt Q92616_C1275 was tested, and the “log2 ratio” value was inactive: -0.145.
With PDLIM5 C449 (UniProt Q96HC4) the “log2 ratio” value was inactive: 0.0755.
In the case of EDC3 C413 (UniProt Q96F86), the “log2 ratio” value is reported as inactive: -0.0482.
In the case of GPKOW C394 (UniProt Q92917), the “log2 ratio” value is reported as inactive: -0.0148.
